Assay results published in paper doi:10.1101/2021.10.28.466285.

Molecular target: CHD4, endogenous in E10.5 mouse embryonic hearts (mouse (endogenous in E10.5 embryonic hearts)), Q6PDQ2
Experiment: affinity purification with mass spectrometry
Conditions: remark: other sources report otherwise

binding: binds
B1: TBX5, endogenous in E10.5 mouse embryonic hearts, P70326 1-518 (protein)
chain: MADTDEGFGLARTPLEPDSKDRSCDSKPESALGAPSKSPSSPQAAFTQQGMEGIKVFLHERELWLKFHEVGTEMIITKAGRRMFPSYKVKVTGLNPKTKYILLMDIVPADDHRYKFADNKWSVTGKAEPAMPGRLYVHPDSPATGAHWMRQLVSFQKLKLTNNHLDPFGHIILNSMHKYQPRLHIVKADENNGFGSKNTAFCTHVFPETAFIAVTSYQNHKITQLKIENNPFAKGFRGSDDLELHRMSRMQSKEYPVVPRSTVRHKVTSNHSPFSSETRALSTSSNLGSQYQCENGVSGPSQDLLPPPNPYPLAQEHSQIYHCTKRKDEECSSTEHPYKKPYMETSPSEEDTFYRSGYPQQQGLSTSYRTESAQRQACMYASSAPPSEPVPSLEDISCNTWPSMPSYSSCTVTTVQPMDRLPYQHFSAHFTSGPLVPRLAGMANHGSPQLGEGMFQHQTSVAHQPVVRQCGPQTGLQSPGGLQPPEFLYTHGVPRTLSPHQYHSVHGVGMVPEWSENS

These are yes or no findings as the source states them, for the method shown. Binding seen in cells or lysates may run through a third protein. Here binding means that the protein was enriched with, or labelled near, the bait; the list need not be complete.
